Results reported in publication PMC6450876.
Results are given in words; binding and its absence hold for the method and conditions named. In cells and extracts the contact can be indirect. Some binding calls cover weakened binding; strength is not graded here. For some assays here: Tags and fused reporters may be left off the sequences shown.

Protein sequences, listed by entry. Tags and fused reporters are not part of them.
UniProt O43474: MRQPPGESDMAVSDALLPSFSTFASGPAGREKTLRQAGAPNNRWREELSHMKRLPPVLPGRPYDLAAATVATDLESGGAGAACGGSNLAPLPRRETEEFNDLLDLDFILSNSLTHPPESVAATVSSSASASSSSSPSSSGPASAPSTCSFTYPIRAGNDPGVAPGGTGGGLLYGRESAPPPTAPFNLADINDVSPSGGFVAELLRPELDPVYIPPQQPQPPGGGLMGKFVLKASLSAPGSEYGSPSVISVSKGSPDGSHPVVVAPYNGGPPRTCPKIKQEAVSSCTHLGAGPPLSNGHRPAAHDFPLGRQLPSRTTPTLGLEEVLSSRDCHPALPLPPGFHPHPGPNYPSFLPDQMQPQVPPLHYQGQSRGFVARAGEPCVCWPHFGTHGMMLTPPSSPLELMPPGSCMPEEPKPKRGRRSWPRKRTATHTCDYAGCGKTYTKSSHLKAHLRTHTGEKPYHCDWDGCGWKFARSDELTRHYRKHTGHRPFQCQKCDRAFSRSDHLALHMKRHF

T1: Flag-SET8 (UniProt Q9NQR1)
T1 sequence: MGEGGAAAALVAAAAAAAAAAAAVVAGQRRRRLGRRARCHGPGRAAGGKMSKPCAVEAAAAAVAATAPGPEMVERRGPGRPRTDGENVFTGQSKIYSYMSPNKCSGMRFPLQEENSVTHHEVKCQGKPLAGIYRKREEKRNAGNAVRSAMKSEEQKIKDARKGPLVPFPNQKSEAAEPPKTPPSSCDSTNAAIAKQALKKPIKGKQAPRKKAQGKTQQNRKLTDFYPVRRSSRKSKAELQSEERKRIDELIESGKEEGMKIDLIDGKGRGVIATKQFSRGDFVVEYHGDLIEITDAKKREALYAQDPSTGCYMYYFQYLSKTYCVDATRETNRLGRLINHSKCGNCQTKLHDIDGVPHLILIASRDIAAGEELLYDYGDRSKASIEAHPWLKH


Assays:
Flag-SET8 = biological target: T1, Flag-SET8; test: co-IP; HEK293T cells expressing Flag-SET8 and HA-KLF4; extracts immunoprecipitated with antibody against Flag tag (IB: KLF4) or KLF4 (IB: Flag-SET8)
[1] = biological target: Krüppel-like factor 4 (KLF4), endogenous in HCC cells (human (endogenous in HCC cell lines)) (UniProt O43474); test: co-IP; endogenous SET8 and KLF4 in HCC cell lines, immunoprecipitation and blot

Molecule	binding (Flag-SET8)	binding [1]
HA-KLF4 (from UniProt O43474 1-513)	binds	
SET8, endogenous in HCC cells (protein, UniProt Q9NQR1 1-393) MGEGGAAAALVAAAAAAAAAAAAVVAGQRRRRLGRRARCHGPGRAAGGKMSKPCAVEAAAAAVAATAPGPEMVERRGPGRPRTDGENVFTGQSKIYSYMSPNKCSGMRFPLQEENSVTHHEVKCQGKPLAGIYRKREEKRNAGNAVRSAMKSEEQKIKDARKGPLVPFPNQKSEAAEPPKTPPSSCDSTNAAIAKQALKKPIKGKQAPRKKAQGKTQQNRKLTDFYPVRRSSRKSKAELQSEERKRIDELIESGKEEGMKIDLIDGKGRGVIATKQFSRGDFVVEYHGDLIEITDAKKREALYAQDPSTGCYMYYFQYLSKTYCVDATRETNRLGRLINHSKCGNCQTKLHDIDGVPHLILIASRDIAAGEELLYDYGDRSKASIEAHPWLKH		binds
